We go through one molecule from ChEMBL document CHEMBL4190192, “Interaction of 7-Alkoxycoumarins with the Aryl Hydrocarbon Receptor” (J Nat Prod, 2017).

Structures are written as SMILES.

The target in data set [1] is T1, Aryl hydrocarbon receptor (Homo sapiens, UniProt P35869).
T1 sequence (P35869 whole entry): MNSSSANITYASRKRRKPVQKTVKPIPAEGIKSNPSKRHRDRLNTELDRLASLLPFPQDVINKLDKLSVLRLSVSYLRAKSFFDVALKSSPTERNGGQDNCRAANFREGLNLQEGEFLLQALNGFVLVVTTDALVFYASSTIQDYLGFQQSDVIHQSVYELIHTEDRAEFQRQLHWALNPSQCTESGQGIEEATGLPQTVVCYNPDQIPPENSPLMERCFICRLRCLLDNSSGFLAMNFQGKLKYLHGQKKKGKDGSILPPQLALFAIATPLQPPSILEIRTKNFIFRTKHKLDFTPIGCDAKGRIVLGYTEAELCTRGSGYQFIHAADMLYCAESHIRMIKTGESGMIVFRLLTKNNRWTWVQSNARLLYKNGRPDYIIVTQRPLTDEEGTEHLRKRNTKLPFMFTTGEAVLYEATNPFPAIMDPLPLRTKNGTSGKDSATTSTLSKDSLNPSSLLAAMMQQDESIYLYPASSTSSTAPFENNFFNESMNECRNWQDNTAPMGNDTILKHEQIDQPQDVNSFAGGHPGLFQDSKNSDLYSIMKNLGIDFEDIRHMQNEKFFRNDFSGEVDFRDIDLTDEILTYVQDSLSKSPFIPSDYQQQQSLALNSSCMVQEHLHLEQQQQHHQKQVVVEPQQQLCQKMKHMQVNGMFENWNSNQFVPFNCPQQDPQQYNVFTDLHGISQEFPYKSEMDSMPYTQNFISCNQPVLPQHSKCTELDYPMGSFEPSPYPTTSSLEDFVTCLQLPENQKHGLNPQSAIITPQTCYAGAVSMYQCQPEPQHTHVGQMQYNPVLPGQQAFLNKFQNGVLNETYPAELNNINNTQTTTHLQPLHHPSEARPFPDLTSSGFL
The experiment in a line: Agonist activity at AhR (unknown origin) expressed in mouse H1L1.1c2 cells at 100 uM after 8 to 10 hrs by luciferase reporter gene assay. Type of data set: cell-based. (In a reporter assay the amount or activity of a reporter protein is the signal.)

Data set [2] deals with T1, Aryl hydrocarbon receptor. The experiment in a line: Antagonist activity at AhR (unknown origin) expressed in mouse H1L1.1c2 cells assessed as inhibition of FICZ-induced AhR activation at 1 to 100 uM after 8 to 10 hrs by luciferase reporter gene assay. The format is cell-based.

Regarding `O=c1ccc2ccc(OCc3ccccc3)cc2o1` [7-BENZYLOXYCOUMARIN], in data set [1], the outcome was Active. Further, in data set [2], the “inhibition (INH)” value is “Not Active”.
